The supplement of paper PMC12889115
Some of the results follow. Values are raw readings; no control value is given beside them.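 First-pass screen: polymyxin B was added at a level that permeabilizes the Salmonella outer membrane while sparing the inner membrane. DMSO wells, with and without polymyxin B, defined maximum growth. Because plates differed from one another, each plate's data were ranked separately and the compounds with the lowest OD600 were carried forward as hits.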

Tested on: Salmonella enterica serovar Typhimurium SL1344
Assay: bacterial growth OD600 after 18 h with compound and polymyxin B; higher = more bacterial growth (less inhibition)
Conditions: 50 µM, Mueller-Hinton broth

SMILES | bacterial growth OD600 (polymyxin B 1 µg/mL) | bacterial growth OD600 (polymyxin B 0.75 µg/mL)
COc1ccc(Cl)cc1NC(=O)CCC1CCCN(Cc2nc3ccccc3[nH]2)C1 (stereo unspecified) | 0.879 | –
COCc1cc(CN2CCCC(CCC(=O)Nc3ccccc3F)C2)ccc1OC (stereo unspecified) | 0.913 | –
O=C(CN1CCCCCC1)NC1CCCc2nc(-c3cccnc3)ncc21 (stereo unspecified) | – | 0.968
COCCN1CC(C(=O)NCCCc2ccc(OC)cc2)CCC1=O (stereo unspecified) | 0.85 | –
CC(C)CC(=O)C(=O)N1CCC(n2nccc2NC(=O)C2CCOC2)CC1 (stereo unspecified) | 1.05 | –
CC(=O)N[C@@H]1c2ccccc2C2(CCN(C(=O)CCc3ccccc3)CC2)[C@H]1OCc1ccccc1 | – | 0.817
CCN(C(=O)c1cccc(F)c1F)[C@@H]1CCN(C(=O)c2cccs2)C[C@H]1O | 1.04 | –
C=C(C)CN(CC)C(=O)c1cc(Cn2c(C)nc3ccccc32)on1 | 0.932 | –
COc1ccc(CN2CC(=O)N(c3ccccc3SC)C(C)C2)cc1O (stereo unspecified) | – | 0.828
CN(CCC(O)c1ccccc1)c1nncc(-c2ccc(F)cc2)n1 (stereo unspecified) | – | 0.564
COc1cccc(CNC(=O)CCC2(Cc3ccc(Cl)cc3)CCC(=O)N2)c1OC (stereo unspecified) | – | 0.839
COCCN1C(=O)NC(Cc2ccc(F)cc2)(C2CCN(C(=O)CC3=CCCCC3)CC2)C1=O (stereo unspecified) | – | 0.839
Cc1ccccc1-n1ncc2c1CC(C)(C)CC2NC(=O)CC(F)(F)F (stereo unspecified) | – | 0.001
CCN(Cc1ccccc1)c1ccc(C(=O)N2CCCC(COC)C2)cn1 (stereo unspecified) | 0.887 | –
C=CCNC(=O)NCc1cccnc1N1CCN(c2ccccn2)CC1 | 0.96 | –
C=C(C)CN(CC)C(=O)c1coc(COc2ccc3c(c2)OCO3)n1 | 0.826 | –

A section from further up, for reference:
SMILES | bacterial growth OD600 (polymyxin B 1 µg/mL) | bacterial growth OD600 (polymyxin B 0.75 µg/mL)
COCCN1CC(C(=O)NCCCc2ccc(OC)cc2)CCC1=O (stereo unspecified) | 0.85 | –
CC(C)CC(=O)C(=O)N1CCC(n2nccc2NC(=O)C2CCOC2)CC1 (stereo unspecified) | 1.05 | –
CC(=O)N[C@@H]1c2ccccc2C2(CCN(C(=O)CCc3ccccc3)CC2)[C@H]1OCc1ccccc1 | – | 0.817
CCN(C(=O)c1cccc(F)c1F)[C@@H]1CCN(C(=O)c2cccs2)C[C@H]1O | 1.04 | –
C=C(C)CN(CC)C(=O)c1cc(Cn2c(C)nc3ccccc32)on1 | 0.932 | –
COc1ccc(CN2CC(=O)N(c3ccccc3SC)C(C)C2)cc1O (stereo unspecified) | – | 0.828

The results go on.

SMILES | bacterial growth OD600 (polymyxin B 1 µg/mL) | bacterial growth OD600 (polymyxin B 0.75 µg/mL)
CCc1cc(CNC(=O)c2coc(COc3ccc(F)cc3Cl)n2)on1 | 0.883 | –
COc1cc(OC)c(CN2CCN(CC3CCCCC3)C(CCO)C2)c(OC)c1 (stereo unspecified) | 0.903 | –
C[C@@H]1CN(c2ccc(C(=O)N3CCC(Cn4cccn4)CC3)cn2)C[C@H](C)O1 | 0.894 | –
COc1ccc(CN2CCN(C(C)C)C(CCO)C2)cc1O (stereo unspecified) | 0.796 | –
CCCCn1c(CN2CCC(CO)CC2)cnc1S(=O)(=O)CCCC(C)C | – | 0.311
COc1ccc(C(=O)NC2CC2)c(OC2CCN(CCCC(F)(F)F)CC2)c1 | 0.944 | –
C=CCOc1cccc(C(=O)NCc2nc(-c3ccccc3NC(=O)c3cc(C)oc3C)oc2C)c1 | – | 0.77
CSCCCNC(=O)c1ccc(OC2CCN(S(C)(=O)=O)CC2)c(Cl)c1 | 1.02 | –
CSCC[C@@H](CO)NC(=O)c1ccc2oc(Cc3ccccc3)nc2c1 | – | 0.852
O=C(/C=C/c1ccco1)N1CC[C@@H](N2CCN(CCc3ccccc3)CC2)[C@H](O)C1 | 0.887 | –
CCCN(CC1CCCO1)C(=O)CCc1nnc(CCc2c[nH]c3ccccc23)o1 (stereo unspecified) | 1.02 | –
Cc1ccc(OCCN(C)C(=O)c2ccc(OC3CCN(C(=O)C4CC4)CC3)cc2)cc1 | 1.25 | –
Cc1ccc(CNC2CCCc3nc(-c4cccnc4)ncc32)o1 (stereo unspecified) | 0.898 | –
O=C(NCCC1COc2ccccc2O1)c1ccc(NC2CC2)nc1 (stereo unspecified) | 0.743 | –
O=C(NCc1cccnc1)c1ccc(N2CCC(NCCC(c3ccccc3)c3ccco3)CC2)cc1 (stereo unspecified) | – | 0.791
